# Data reported in PubChem BioAssay AID493212 (National Center for Advancing Translational Sciences (NCATS), 2011).
# By UniProt entry, the sequences of proteins in these tests, tags left out. Residues count along the entry.
# UniProt B2RXH2, 1-337 limits assumed: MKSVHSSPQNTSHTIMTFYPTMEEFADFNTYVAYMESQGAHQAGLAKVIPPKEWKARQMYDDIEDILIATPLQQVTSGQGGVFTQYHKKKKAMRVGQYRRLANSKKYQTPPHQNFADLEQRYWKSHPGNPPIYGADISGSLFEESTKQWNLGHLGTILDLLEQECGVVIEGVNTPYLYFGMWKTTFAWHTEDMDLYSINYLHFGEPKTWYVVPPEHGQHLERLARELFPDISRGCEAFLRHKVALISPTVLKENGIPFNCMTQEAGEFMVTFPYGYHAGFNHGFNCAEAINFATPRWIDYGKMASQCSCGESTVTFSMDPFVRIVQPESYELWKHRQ
# The inconclusive results got no clear call from the source. A potency beside an inconclusive call is a rough fit, not a confirmed value.
# Target: Lysine-specific demethylase 4E (Homo sapiens) (UniProt B2RXH2)
# Experiment: Inhibitors of Human Jumonji Domain Containing 2E (JMJD2E): 8HQs - Round 1
# Details: FDH-coupled NADH fluorescence (FDH is formaldehyde dehydrogenase); active means well fitted inhibition curve with a large enough effect; inconclusive means small, poorly fitted or top-dose-only effect; inactive means no such curve, though single readings can be large or run the other way
# From the text: The fine interplay among methylation states of several lysine residues on the tails of histone proteins is a major determinant of the transcriptional state of the associated DNA coding regions and is commonly referred to as the histone code. Histone lysine demethylases catalyze the removal of methyl groups from methylated lysine sidechains on histones H3 and H4, thus antagonizing the reactions catalyzed by histone lysine methyltransferases. […] In search for novel inhibitors of JMJD2E demethylase, a member of the largest set of histone demethylases belonging to the Fe(II) and 2-oxoglutarate oxygenase (2OG) superfamily, we performed a quantitative high-throughput screen (Inglese 2006) by using an assay which utilizes a trimethylated peptide substrate corresponding to a fragment of histone H3 (sequence ARKme3STGGK) with detection of the formaldehyde co-product in real time by a formaldehyde dehydrogenase (FDH) coupled reaction. […]
# Reagents and Controls: Ferrous ammonium sulfate, (+)-sodium L-ascorbate, beta-nicotinamide adenine dinucleotide hydrate (NAD+), Tween-20, formaldehyde dehydrogenase from P. putida (FDH), and disodium 2-oxoglutarate were from Sigma (St. Louis, MO). […] The plate was transferred to ViewLux imager where an initial reading using standard UV optics (Ex 340 nm, Em 450 nm) was obtained. […]
smiles,measurement,value
Oc1cccc2cc(N3CCNCC3)cnc12,Potency,"inconclusive: 5.76 µM [inhibitor, partial curve]"
